At least one compound was matched to its structure with a doubt left.
Experiments:
[1] = test system: human MDAMB-231 mammary cancer cells; assay: In vitro growth (sulforhodamine B) assay, MDAMB-231 cells; assay type: cell-based; conditions: substance alone, absence of estradiol; 72 h
Protocol: (§1) Cell lines. The experimental cell cultures were obtained from American Type Culture Collection (Rockville, Md., USA). MCF-7 and MDA-MB231 cells (estrogen receptor positive and negative respectively breast cancer cells) were grown in Dulbecco's modified Eagle's medium (DMEM) containing 10% FCS, 100 U/ml penicillin, 100 μg/ml streptomycin and 1 mM glutamine. Cells were seeded into 96 well microtiter plates in 100 μl at plating density of 3×10^3 cells/well. After 24 h incubation at 37° C. under a humidified 5% carbon dioxide to allow cell attachment, the cells were washed with phenol red-free and the medium was changed to phenol red-free DMEM supplemented with 4% dextran-charcoal-stripped foetal calf serum (DCFCS). Then the cells were treated with different concentrations of drugs and incubated for 72 h under the same conditions. Stock solution of compounds was prepared in ethanol and the final concentration of this solvent was kept constant at 1%. Control cultures received 1% ethanol alone.
(§2) In vitro growth inhibition assay. The sulforhodamine B assay was used according to the method of Skehan et al. 1990 (48) with some modifications (49). […] Protein-bound stain was solubilized with 100 μl of 10 mM unbuffered Tris base, and the cell density was determined using a […] (wavelength 540 nm). […]

[2] = test system: rat uterus; assay: Estrogenic (agonist) responses in the uterus of prepubertal female rats, substance alone; assay type: in vivo; conditions: s.c.
Protocol: Prepubertal female rats were treated s.c. with the vehicle (C) (0.3 mL 1:9 ethanol saline), or a phytoestrogenic preparation, followed after one hour by estradiol-17β (E) Merck (0.33 mg/kg b.wt.), or its vehicle. Among the phytoestrogenic compounds used, genistein (G) Sigma (0.5 mg/kg b.wt.), two different concentrations of soybean ethanol extracts (S): 0.06 (Sd) and 0.364 (Sc) mg genistin/kg b.wt., and extracts, decoctions or extract sub-fractions of various plant species. Genistein quantification was based in the indirect valoration of genistein following 2M HCl hydrolysis and genistein quantification by HPLC (45, 46). […] Uteri were excised under ether anesthesia and histologically processed for eosinophil quantification and morphometric analysis of different parameters of estrogen action (22, 34). The following parameters were quantified in the uterus: total uterine eosinophilia (6), percentage of eosinophils according to the distribution in different uterine histological layers and to their degree of degranulation (10, 14); deep endometrial and superficial endometrial edema (47); luminal epithelial, glandular epithelial (34) and myometrial (47) cell hypertrophy, luminal epithelial RNA content (34), and number of mitotic figures for each uterine cell-type.
Statistics: According to previous studies (14) using the Tukey test of additivity (50), data on some parameters of estrogen stimulation needs to be submitted to logarithmic transformation or to square or cubic root transformation to normalize distribution. Accordingly, the transformations were performed on some of the parameters of estrogen stimulation investigated (14). Transformed and non-transformed data were subjected to further statistical analysis.
Since multiple comparisons were performed between the different experimental conditions, transformed and non-transformed data (all parameters except eosinophil degranulation and eosinophil distribution between uterine tissue layers) were subjected to the least significant difference a posteriori (LSD) test. The common variance needed for this test was estimated from a one-way unbalanced analysis of variance (ANOVA).
In uterine eosinophil degranulation and distribution studies, the χ^2 statistic was used to evaluate differences between the proportions.

[3] = test system: human MCF-7 mammary cancer cells; assay: In vitro growth (sulforhodamine B) assay, MCF-7 cells; assay type: cell-based; conditions: substance alone, absence of estradiol; 72 h
Protocol: as §1, §2

C[C@]12CC[C@@H]3c4ccc(O)cc4CC[C@H]3[C@@H]1CC[C@@H]2O [E, estradiol-17β]
Cell proliferation of cultured MDAMB-231 cells [1]: slightly inhibited | Edema in deep endometrial stroma ([2]; 6 h (FIG. 4)): induced by E only | Uterine eosinophilia ([2]; 6 h (FIG. 5)): normal intensity estrogen-induced uterine eosinophilia | Endometrial luminal epithelial cell hypertrophy ([2]; 24 h (FIG. 2)): induced | Endometrial luminal epithelial cell RNA content ([2]; 24 h (FIG. 3)): induced | Cell proliferation (number of mitotic figures) in uterine luminal epithelium ([2]; 24 h (FIG. 8)): by E only | Cell proliferation (number of mitotic figures) in uterine glandular epithelium ([2]; 24 h (FIG. 9)): by E only | Cell proliferation (number of mitotic figures) in endometrial stroma ([2]; 24 h (FIG. 10)): by E only | Cell proliferation (number of mitotic figures) in myometrium ([2]; 24 h (FIG. 11)): by E only | Myometrial hypertrophy ([2]; uteri excised 24 h after treatment (FIG. 1)): induced | Cell proliferation of cultured MCF-7 cells [3]: increased

From patent US9089526B2, “Pharmaceutical product and analysis model for hormone replacement therapy for women and prevention of some cancers and uterine myomas” (Universidad de Chile, priority 2009, dated 2015)
